Results from publication PMC10154458.
Results are given in words; binding and its absence hold for the method and conditions named. In cells and extracts the contact can be indirect. Some entries that bind do so weakly or less than the wild type. For some assays here: Tags and fused reporters may be left off the sequences shown.

Amino acid sequences for entries named in this document (tags omitted).
UniProt P60881: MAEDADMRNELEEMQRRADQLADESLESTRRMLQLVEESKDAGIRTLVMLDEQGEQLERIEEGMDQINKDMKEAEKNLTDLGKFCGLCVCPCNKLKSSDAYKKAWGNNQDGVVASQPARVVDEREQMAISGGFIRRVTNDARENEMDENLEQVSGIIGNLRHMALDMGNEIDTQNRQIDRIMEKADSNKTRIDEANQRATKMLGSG
UniProt P63045: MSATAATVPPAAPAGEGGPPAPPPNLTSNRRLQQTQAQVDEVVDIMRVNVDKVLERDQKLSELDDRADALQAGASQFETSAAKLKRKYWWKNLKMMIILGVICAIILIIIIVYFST

T1: GST-SNAPIN (UniProt P60192)
T1 sequence: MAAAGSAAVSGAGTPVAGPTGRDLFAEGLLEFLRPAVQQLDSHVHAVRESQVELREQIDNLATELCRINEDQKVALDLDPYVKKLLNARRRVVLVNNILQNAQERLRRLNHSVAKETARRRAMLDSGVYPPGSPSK

T2: mCherry-STX3 (UniProt Q08849)
T2 sequence: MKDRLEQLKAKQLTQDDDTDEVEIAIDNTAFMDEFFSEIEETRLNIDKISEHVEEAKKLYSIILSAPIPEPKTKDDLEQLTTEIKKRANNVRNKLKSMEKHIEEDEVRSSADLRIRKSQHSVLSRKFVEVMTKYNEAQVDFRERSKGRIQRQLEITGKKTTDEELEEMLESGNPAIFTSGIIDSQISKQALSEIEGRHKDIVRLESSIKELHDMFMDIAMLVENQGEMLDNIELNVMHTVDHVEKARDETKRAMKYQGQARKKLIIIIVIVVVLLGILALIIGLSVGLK

T3: mCherry-VAMP8 (UniProt Q9WUF4)
T3 sequence: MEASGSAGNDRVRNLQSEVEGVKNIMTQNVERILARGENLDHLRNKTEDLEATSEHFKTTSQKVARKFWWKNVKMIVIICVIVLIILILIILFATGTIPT


Experiments:
GST-SNAPIN = biological target: T1, GST-SNAPIN; test: pull-down; GST-SNAP25 (GST-SNAPIN in Figure 3C) used to pull down the co-transfected SNARE protein from total extracts of 293T cells, with GFP vector or GFP-SNAP23 (WT, truncated or mutant) co-expressed; Western blot; only the target purified
GST-tagged SNAP25 = GST-tagged SNAP25 (UniProt P60881); test: as above
mCherry-VAMP2 = mCherry-VAMP2 (UniProt P63045); test: co-IP; 293T cells co-transfected with GFP-SNAP23 (WT, truncated or mutant) and an mCherry-tagged SNARE protein; lysates in NP-40 buffer (1% NP-40, 150 mM NaCl, 50 mM Tris Base, 1% Triton X-100) immunoprecipitated with anti-mCherry antibody at 4°C, blotted with anti-GFP
mCherry-STX3 = biological target: T2, mCherry-STX3; test: as above
mCherry-VAMP8 = biological target: T3, mCherry-VAMP8; test: as above

Row | Molecule | binding (GST-SNAPIN) | binding (GST-tagged SNAP25) | binding (mCherry-VAMP2) | binding (mCherry-STX3) | binding (mCherry-VAMP8)
1 | SNAP25 co-transfected in 293T cells (Figure 3C) (from UniProt P60881 1-206) | binds |  |  |  | 
2 | mCherry-VAMP8 (protein, UniProt Q9WUF4 1-100) MEASGSAGNDRVRNLQSEVEGVKNIMTQNVERILARGENLDHLRNKTEDLEATSEHFKTTSQKVARKFWWKNVKMIVIICVIVLIILILIILFATGTIPT |  | binds |  |  | 
3 | GFP-SNAP23 S95D (protein, UniProt O70377 1-210) MDDLSPEEIQLRAHQVTDESLESTRRILGLAIESQDAGIKTITMLDEQGEQLNRIEEGMDQINKDMREAEKTLTELNKCCGLCVCPCNRTKNFEDGKNYKATWGDGGDSSPSNVVSKQPSRITNGQPQQTTGAASGGYIKRITNDAREDEMEENLTQVGSILGNLKNMALDMGNEIDAQNQQIQKITEKADTNKNRIDIANTRAKKLIDS |  |  | binds | binds | binds
4 | GFP-tagged full-length WT SNAP23 (amino acids 1-210) (protein, UniProt O70377 1-210) MDDLSPEEIQLRAHQVTDESLESTRRILGLAIESQDAGIKTITMLDEQGEQLNRIEEGMDQINKDMREAEKTLTELNKCCGLCVCPCNRTKNFESGKNYKATWGDGGDSSPSNVVSKQPSRITNGQPQQTTGAASGGYIKRITNDAREDEMEENLTQVGSILGNLKNMALDMGNEIDAQNQQIQKITEKADTNKNRIDIANTRAKKLIDS |  |  | binds | binds | binds
